The results in this text go back to PMC10576769 (Nature Communications, 2023).

Amino acid sequences for entries named in this document (tags omitted). Residues count along the entry.
UniProt Q0TV31, residues 29-398: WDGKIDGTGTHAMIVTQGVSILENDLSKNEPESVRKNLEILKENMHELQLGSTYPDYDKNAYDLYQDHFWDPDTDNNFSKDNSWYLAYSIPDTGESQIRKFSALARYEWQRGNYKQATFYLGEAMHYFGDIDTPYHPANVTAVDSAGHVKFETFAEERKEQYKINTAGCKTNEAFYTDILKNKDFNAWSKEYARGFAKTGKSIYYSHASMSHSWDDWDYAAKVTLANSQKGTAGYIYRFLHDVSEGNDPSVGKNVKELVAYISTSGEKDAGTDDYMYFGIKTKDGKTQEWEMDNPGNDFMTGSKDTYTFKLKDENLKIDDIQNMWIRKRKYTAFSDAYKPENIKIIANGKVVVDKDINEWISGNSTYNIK

In assay [1] the target is phospholipase C from Clostridium perfringens (CpPC-PLC), wild type, mature (Clostridium perfringens) (UniProt Q0TV31). The experiment in a line: native gel or EMSA; both purified. A general note: Mobility shift assays separate free from complexed probe on a gel.
Assay [2] shares this target. The experiment in a line: SEC; both purified. On the technique in general: In gel filtration, larger molecules generally elute earlier.

Results are given in words; binding and its absence hold for the method and conditions named.

Turning to “phospholipase C from Clostridium perfringens (CpPC-PLC), wild type, mature (from UniProt Q0TV31 29-398) (enzyme)”, the binding result in assay [1] and in assay [2] was “no binding” throughout.
